Source: PubChem BioAssay AID686943 (Drosophila RNAi Screening Center, 2013)
Screen: 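Fly genes whose loss alters ERK activation after insulin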 (primary screen). Cell system: Drosophila S2R+ haemocyte-like cells expressing YFP-tagged ERK (Rolled). Reagents: long dsRNA against Drosophila genes. Challenge: insulin stimulation versus unstimulated cells; dose and duration not given. Measurement: 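Per-plate z-scores of phospho-ERK immunostaining normalised to YFP-tagged ERK, measured with and without insulin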. Scale: replicate 1, z-score of dpERK with insulin and replicate 2, z-score of dpERK with insulin: higher = more active ERK per ERK-YFP after insulin; replicate 1, z-score of dpERK under basal conditions: higher = more basal active ERK per ERK-YFP; replicate 1, z-score of ERK-YFP with insulin: higher = more YFP-tagged ERK signal.
The screen tested about 23,000 reagents; below is a random part of those with a known target gene and a result. 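Extra replicates exist only for a retested subset of genes; insulin dose and duration not given; both raised and lowered dpERK matter.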 A plus sign joins genes that one reagent is predicted to hit. Reagent sequences are not shown. Not given: the amount of reagent, the time to read-out.

Gene | DRSC id | replicate 1, z-score of dpERK with insulin | replicate 2, z-score of dpERK with insulin | replicate 1, z-score of dpERK under basal conditions | replicate 1, z-score of ERK-YFP with insulin
Alp11 | DRSC20080 | -0.32 | -0.4 | -0.45 | -0.06
CG12914 | DRSC06229 | 0.44 | 0.48 | 0.05 | -0.06
CG42671 | DRSC09093 | -3.07 | -0.56 | -0.6 | -0.1
CG42671 | DRSC10321 | -0.46 | 0.38 | 1.08 | 0.74
CG34452 | DRSC09387 | 0.07 | 0.44 | -0.54 | 0.16
CG15128 | DRSC06550 | -1.18 | 0 | 0.64 | 0.09
CG42580 | DRSC20397 | 0.32 | -0.81 | -0.2 | 0.32
CG13531 | DRSC04173 | 1.6 | 0.03 | 1.07 | -0.63
nxf4 | DRSC12548 | 0.34 | -1.05 | 1.9 | -0.25
Dis3l2 | DRSC08496 | -0.23 | -0.07 | -0.73 | -0.29
CG10445 | DRSC14247 | 0.06 | -0.35 | 0.09 | 0.28
ND-PDSW | DRSC00715 | 0.47 | -0.13 | 0.6 | -0.22
CG14892 | DRSC15014 | 1.9 | -0.52 | 0.63 | -1.02
Ndc80 | DRSC20221 | 0.01 | -0.32 | 1.43 | -0.44
Ndc80 | DRSC21726 | 0.49 | -0.37 | -0.04 | -0.62
ppk10 | DRSC01123 | -0.89 | -0.07 | -1.31 | 0.47
CG13227 | DRSC06347 | 0.84 | 0.85 | 1.14 | -0.18
mRpL51 | DRSC02200 | -0.32 | -0.83 | 0.07 | 0.79
Fpgs2 | DRSC00600 | -0.4 | 0.49 | 1.55 | -0.33
Klp68D | DRSC11206 | -0.2 | 0.06 | 0 | 0.2
ver | DRSC10125 | -0.05 | 0.65 | -1.31 | 0.67
Pect | DRSC02867 | -0.18 | 1.66 | -0.06 | 0.32
Pect | DRSC02868 | 0.46 | 0.82 | -1.92 | 1.29
Scp1 | DRSC20799 | 0.41 | 0.44 | -0.97 | -0.64
Scp1 | DRSC20803 | -0.4 | -0.95 | 0.25 | -0.11
Scp1 | DRSC20806 | -0.17 | -0.28 | 0.41 | -0.13
CG17601 | DRSC20639 | 0.34 | -0.28 | -0.46 | -0.2
CG2211 | DRSC08559 | 0.05 | 0.53 | -0.6 | 0.47
Or2a | DRSC18690 | 0.88 | 0 | 0.84 | 0.05
CG12828 | DRSC06177 | 0.23 | 0.34 | -0.68 | 0.44
CG33491 (retired record) + CG33496 (retired record) + CG33487 (retired record) + 1 more | DRSC22969 | 0.39 | 0.16 | 0.64 | 0.57
Plekhm1 | DRSC04527 | 0.3 | 0.18 | 1.08 | 0.26
c11.1 | DRSC18749 | -0.63 | 0.23 | 0.04 | 0.08
MstProx + Mst84Da | DRSC12597 | -0.57 | -0.38 | -1.77 | 0.93
CG8065 | DRSC10959 | 0.74 | 0.45 | -0.17 | -0.34
CG32833 | DRSC04596 | -0.26 | -0.6 | -0.24 | 0.22
BORCS6 | DRSC08514 | -0.41 | -0.43 | 0.56 | -0.01
CG17658 | DRSC04292 | -0.67 | -0.08 | 0.42 | 0.22
Scamp | DRSC20286 | -0.21 | -0.71 | 2.45 | 0.18

6 entries from above, reformatted:
Gene,DRSC id,"replicate 1, z-score of dpERK with insulin","replicate 2, z-score of dpERK with insulin","replicate 1, z-score of dpERK under basal conditions","replicate 1, z-score of ERK-YFP with insulin"
CG17601,DRSC20639,0.34,-0.28,-0.46,-0.2
CG2211,DRSC08559,0.05,0.53,-0.6,0.47
Or2a,DRSC18690,0.88,0,0.84,0.05
CG12828,DRSC06177,0.23,0.34,-0.68,0.44
CG33491 (retired record) + CG33496 (retired record) + CG33487 (retired record) + 1 more,DRSC22969,0.39,0.16,0.64,0.57
Plekhm1,DRSC04527,0.3,0.18,1.08,0.26
